In patent publication US20110045604A1:
These are yes or no findings as the source states them, for the method shown. Some binding calls cover weakened binding; strength is not graded here. Sequences can lack the tags named with a protein.

Chains of the proteins cited; added tags and fusions are not shown. Residues count along the entry.
UniProt Q96RT1, residues 1321-1410: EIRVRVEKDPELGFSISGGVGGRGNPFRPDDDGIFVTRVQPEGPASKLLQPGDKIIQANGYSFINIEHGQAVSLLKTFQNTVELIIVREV

Target: T1, SUMO-ARVCF peptide fusion protein (yeast)
T1 sequence: PQPVDSWV
Assay: binding analysis of purified protein

binding: binds
Substance: Erbin PDZ (from UniProt Q96RT1 1321-1410)
